No constants are given. Whether binding was seen depends on the method and setting. In cells and extracts the contact can be indirect. Some binding calls cover weakened binding; strength is not graded here.
B1: Ysc84 (protein, UniProt P32793 1-468)
chain: MGINNPIPRSLKSETKKAAKVLRSFVKPNQVFGADQVIPPYVLKRAKGLAIITVLKAGFLFSGRAGSGVIVARLKDGTWSAPSAIAMAGAGAGGMVGVELTDFVFILNSEEAVRSFSEFGTITLGGNVSVSAGPLGRSAEAAASASTGGVSAVFAYSKSKGLFAGVSVEGSAILERREANRKFYGDNCTSKMILSGRVKVPPAADPLLRILESRAFNFTRHDHDDNASGDDFYDDGQYSDNTSHYYDDIPDSFDSTDESSTRPNTRSSRRRGMSLGSRSRYDDDYDDDGYGRGRGYGDFDSEDEDYDYGRSPNRNSSRNRGPQIDRGTKPRANTRWEDDLYDRDTEYSRPNHSGRDYDNTRGNRRGYGRERGYSLGHGPTHPSNMSNVDDLSHKMSKTGLGNESTATNSATPTAVALYNFAGEQPGDLAFKKGDVITILKKSDSQNDWWTGRTNGKEGIFPANYVRVS
B2: Abp1 (protein, UniProt P15891 1-592)
chain: MALEPIDYTTHSREIDAEYLKIVRGSDPDTTWLIISPNAKKEYEPESTGSSFHDFLQLFDETKVQYGLARVSPPGSDVEKIIIIGWCPDSAPLKTRASFAANFAAVANNLFKGYHVQVTARDEDDLDENELLMKISNAAGARYSIQTSSKQQGKASTPPVKKSFTPSKSPAPVSKKEPVKTPSPAPAAKISSRVNDNNDDDDWNEPELKERDFDQAPLKPNQSSYKPIGKIDLQKVIAEEKAKEDPRLVQKPTAAGSKIDPSSDIANLKNESKLKRDSEFNSFLGTTKPPSMTESSLKNDDDKVIKGFRNEKSPAQLWAERKAKQNSGNAETKAEAPKPEVPEDEPEGEPDVKDLKSKFEGLAASEKEEEEMENKFAPPPKKSEPTIISPKPFSKPQEPVKAEEAEQPKTDYKKIGNPLPGMHIEADNEEEPEENDDDWDDDEDEAAQPPLPSRNVASGAPVQKEEPEQEEIAPSLPSRNSIPAPKQEEAPEQAPEEEIEEEAEEAAPQLPSRSSAAPPPPPRRATPEKKPKENPWATAEYDYDAAEDNELTFVENDKIINIEFVDDDWWLGELEKDGSKGLFPSNYVSLGN

By UniProt entry, the sequences of proteins in these tests, tags left out.
UniProt P31539: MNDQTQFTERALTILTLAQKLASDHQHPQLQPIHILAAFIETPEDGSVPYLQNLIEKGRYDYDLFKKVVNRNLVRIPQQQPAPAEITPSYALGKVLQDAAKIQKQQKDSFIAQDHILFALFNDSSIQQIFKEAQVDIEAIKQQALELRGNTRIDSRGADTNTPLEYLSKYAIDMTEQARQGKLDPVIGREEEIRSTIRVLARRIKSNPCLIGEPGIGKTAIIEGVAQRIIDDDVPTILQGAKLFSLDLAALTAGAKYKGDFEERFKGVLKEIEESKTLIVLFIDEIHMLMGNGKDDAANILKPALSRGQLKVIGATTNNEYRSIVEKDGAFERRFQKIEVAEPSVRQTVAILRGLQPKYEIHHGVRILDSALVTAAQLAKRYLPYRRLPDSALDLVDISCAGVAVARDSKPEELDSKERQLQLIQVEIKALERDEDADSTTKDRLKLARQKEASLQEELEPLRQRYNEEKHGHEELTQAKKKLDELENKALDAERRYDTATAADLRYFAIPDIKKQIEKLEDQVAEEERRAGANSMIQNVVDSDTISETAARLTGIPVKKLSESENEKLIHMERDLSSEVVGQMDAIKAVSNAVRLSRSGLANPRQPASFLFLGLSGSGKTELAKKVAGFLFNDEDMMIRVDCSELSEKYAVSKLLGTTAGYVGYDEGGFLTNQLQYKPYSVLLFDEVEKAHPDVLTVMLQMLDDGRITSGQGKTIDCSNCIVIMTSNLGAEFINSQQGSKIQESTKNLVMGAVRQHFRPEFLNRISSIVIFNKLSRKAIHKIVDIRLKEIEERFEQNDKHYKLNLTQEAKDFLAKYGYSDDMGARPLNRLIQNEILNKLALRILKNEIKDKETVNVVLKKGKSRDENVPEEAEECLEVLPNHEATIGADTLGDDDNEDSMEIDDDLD
UniProt P22137: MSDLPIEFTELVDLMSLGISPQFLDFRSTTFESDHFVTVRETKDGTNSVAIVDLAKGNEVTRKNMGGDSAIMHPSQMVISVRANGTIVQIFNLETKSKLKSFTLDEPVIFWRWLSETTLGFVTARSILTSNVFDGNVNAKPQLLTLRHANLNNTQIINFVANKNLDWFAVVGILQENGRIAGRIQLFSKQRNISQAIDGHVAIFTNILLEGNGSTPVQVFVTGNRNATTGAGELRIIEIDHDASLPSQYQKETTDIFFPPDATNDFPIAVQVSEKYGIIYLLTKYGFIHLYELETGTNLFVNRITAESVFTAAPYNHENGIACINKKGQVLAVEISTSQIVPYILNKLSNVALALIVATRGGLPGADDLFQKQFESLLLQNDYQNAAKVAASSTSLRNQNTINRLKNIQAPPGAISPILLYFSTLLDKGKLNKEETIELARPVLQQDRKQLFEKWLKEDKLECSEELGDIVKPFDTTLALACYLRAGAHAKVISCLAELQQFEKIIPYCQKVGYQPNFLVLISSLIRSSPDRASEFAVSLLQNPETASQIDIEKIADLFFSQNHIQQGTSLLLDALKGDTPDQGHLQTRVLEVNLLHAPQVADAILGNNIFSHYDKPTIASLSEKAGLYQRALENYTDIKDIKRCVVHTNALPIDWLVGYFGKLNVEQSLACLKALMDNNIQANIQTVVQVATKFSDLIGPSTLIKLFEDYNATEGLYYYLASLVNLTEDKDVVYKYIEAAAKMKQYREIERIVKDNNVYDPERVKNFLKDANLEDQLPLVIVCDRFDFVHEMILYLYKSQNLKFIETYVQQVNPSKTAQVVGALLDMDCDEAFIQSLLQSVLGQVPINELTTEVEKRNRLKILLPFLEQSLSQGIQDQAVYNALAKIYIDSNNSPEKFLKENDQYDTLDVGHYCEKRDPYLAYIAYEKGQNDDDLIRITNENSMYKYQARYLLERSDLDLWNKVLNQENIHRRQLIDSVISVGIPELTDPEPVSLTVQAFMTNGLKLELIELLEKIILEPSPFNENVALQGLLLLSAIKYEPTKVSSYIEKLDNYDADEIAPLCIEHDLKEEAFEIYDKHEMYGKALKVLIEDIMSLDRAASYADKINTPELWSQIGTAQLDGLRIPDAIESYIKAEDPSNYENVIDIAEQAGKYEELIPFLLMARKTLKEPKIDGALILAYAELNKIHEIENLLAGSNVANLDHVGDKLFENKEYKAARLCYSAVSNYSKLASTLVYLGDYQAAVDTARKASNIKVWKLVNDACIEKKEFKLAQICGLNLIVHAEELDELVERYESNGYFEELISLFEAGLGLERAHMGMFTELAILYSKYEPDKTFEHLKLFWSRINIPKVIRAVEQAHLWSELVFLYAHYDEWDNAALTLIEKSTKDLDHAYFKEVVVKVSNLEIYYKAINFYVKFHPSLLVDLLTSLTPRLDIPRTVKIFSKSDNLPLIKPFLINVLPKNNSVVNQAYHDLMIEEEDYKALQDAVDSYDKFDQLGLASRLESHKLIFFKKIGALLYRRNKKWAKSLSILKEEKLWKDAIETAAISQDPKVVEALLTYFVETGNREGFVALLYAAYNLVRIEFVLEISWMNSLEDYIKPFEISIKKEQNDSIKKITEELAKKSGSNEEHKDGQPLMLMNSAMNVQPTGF
UniProt P38328: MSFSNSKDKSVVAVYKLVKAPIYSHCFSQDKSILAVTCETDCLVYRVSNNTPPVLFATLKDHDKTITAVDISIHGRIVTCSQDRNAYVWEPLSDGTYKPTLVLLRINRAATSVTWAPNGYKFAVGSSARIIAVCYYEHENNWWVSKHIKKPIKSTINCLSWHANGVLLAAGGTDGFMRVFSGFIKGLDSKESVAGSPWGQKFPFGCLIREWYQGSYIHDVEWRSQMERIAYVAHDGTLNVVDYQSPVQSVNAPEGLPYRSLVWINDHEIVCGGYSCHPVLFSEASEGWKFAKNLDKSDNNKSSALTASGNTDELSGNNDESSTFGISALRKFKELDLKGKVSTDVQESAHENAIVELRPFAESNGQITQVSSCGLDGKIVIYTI
UniProt Q12446: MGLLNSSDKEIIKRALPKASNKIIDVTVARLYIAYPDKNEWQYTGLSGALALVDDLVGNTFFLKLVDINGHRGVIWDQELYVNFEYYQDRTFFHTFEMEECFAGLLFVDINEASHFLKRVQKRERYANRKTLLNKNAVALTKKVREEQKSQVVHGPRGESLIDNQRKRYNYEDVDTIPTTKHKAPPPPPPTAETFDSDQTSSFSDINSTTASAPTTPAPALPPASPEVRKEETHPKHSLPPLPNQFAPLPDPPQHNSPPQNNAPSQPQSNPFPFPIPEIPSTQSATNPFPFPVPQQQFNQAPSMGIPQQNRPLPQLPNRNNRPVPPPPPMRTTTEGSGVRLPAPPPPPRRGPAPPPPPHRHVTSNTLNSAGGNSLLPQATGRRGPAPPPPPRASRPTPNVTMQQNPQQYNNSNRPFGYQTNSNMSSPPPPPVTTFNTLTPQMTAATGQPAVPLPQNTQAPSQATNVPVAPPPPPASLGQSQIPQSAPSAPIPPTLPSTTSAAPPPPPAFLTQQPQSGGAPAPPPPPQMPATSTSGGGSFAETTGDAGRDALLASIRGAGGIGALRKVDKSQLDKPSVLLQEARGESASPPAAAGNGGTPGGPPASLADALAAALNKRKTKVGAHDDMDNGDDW

molecular target: T1, Sla1 (S. cerevisiae) (UniProt P32790); test: split reporter
T1 sequence: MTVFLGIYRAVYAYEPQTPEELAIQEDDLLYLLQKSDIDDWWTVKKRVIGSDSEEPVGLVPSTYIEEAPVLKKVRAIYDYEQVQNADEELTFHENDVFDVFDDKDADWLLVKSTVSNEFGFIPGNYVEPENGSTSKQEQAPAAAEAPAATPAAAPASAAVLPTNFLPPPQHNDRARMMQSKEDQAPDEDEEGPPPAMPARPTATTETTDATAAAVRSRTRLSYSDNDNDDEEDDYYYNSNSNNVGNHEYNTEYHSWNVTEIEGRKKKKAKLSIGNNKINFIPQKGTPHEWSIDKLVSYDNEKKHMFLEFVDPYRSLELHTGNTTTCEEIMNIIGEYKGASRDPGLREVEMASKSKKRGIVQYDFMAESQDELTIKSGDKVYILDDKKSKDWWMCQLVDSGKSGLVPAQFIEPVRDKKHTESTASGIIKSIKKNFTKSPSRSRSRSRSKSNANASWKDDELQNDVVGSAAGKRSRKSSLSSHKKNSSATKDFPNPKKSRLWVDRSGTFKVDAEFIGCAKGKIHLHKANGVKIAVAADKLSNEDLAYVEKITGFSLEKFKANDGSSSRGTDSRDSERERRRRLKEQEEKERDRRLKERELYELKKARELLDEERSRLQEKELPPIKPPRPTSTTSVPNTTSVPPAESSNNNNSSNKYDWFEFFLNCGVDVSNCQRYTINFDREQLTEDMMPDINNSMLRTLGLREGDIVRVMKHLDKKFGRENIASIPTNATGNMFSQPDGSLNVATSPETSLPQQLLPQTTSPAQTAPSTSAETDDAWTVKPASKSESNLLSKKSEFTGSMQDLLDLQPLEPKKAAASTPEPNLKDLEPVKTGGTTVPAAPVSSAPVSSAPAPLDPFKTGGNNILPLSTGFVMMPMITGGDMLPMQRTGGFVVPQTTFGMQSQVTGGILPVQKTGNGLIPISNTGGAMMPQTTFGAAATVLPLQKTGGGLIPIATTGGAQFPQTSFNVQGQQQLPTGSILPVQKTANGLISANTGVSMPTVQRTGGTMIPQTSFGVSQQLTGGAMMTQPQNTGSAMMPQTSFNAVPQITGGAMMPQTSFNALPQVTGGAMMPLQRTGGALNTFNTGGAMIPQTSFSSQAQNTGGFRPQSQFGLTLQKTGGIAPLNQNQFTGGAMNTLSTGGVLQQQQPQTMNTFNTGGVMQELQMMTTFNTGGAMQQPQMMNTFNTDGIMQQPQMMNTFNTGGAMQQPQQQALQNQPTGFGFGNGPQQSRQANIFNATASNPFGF

binding, binds:
Hsp104 (from UniProt P31539 1-908)
Chc1 (from UniProt P22137 1-1653)
Arc40 (from UniProt P38328 1-384)
Las17 (from UniProt Q12446 1-633)
B1
B2

Reference: publication doi:10.1101/145664
